# The list shows a part of the results.
# B1: Pwp6 (Candida glabrata) (protein)
# chain: MGSSHHHHHHSSGLVPRGSHMASANLPKLTNICQIPDNVKKTSGFKGEIRRIGLFPPGGDYTYLLKFPSTGSTASDTISLTTKPQLSTSGWFPSLFGHTYFIKADLLVYMVAYFVPTETGEYTFKLVNSDDAAVMYVGNPSAFPCGSIDTWPEPRKEDINVCDKISASTKLYMEKGLAYPVRLVWYNGGGDGQFNAQFIDPSGTTHTDWNGYVWQYDACTDCDYK
# What was measured:
# Experiment in all cases: glycan array binding signal (z-score within array); higher = stronger binding
# Settings in all cases: glycan notation: IUPAC condensed, linker removed
# [1] = molecular target: GalNAc(b1-4)GlcNAc(b1-2)Man
# Summary of the method: (§1)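 Arrays were curated from the Consortium for Functional Glycomics database, 3228 in total, and kept only where the protein sequence was available. Binding is expressed as a within-array Z-score. This score was averaged across arrays of the same protein sequence at different concentrations or buffers and across linkers, and negative values can be read as non-binding.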
# [2] = molecular target: GalNAc(b1-4)GlcNAc(b1-2)Man(a1-3)[GalNAc(b1-4)GlcNAc(b1-2)Man(a1-6)]Man(b1-4)GlcNAc(b1-4)GlcNAc
# Summary of the method: as §1
# [3] = molecular target: GalNAc(b1-4)GlcNAc(b1-3)GalNAc(b1-4)GlcNAc
# Summary of the method: as §1
# GalNAc(b1-4)GlcNAc6S = molecular target: GalNAc(b1-4)GlcNAc6S
# Summary of the method: as §1
# GalNAc(b1-6)GalNAc = molecular target: GalNAc(b1-6)GalNAc
# Summary of the method: as §1
# GalNAc3S(b1-4)GlcNAc = molecular target: GalNAc3S(b1-4)GlcNAc
# Summary of the method: as §1
# GalNAc3S(b1-4)GlcNAc3S = molecular target: GalNAc3S(b1-4)GlcNAc3S
# Summary of the method: as §1
# [4] = molecular target: GalNAc3S(b1-4)[Fuc(a1-3)]GlcNAc
# Summary of the method: as §1
# GalNAc4S6S(b1-4)GlcNAc = molecular target: GalNAc4S6S(b1-4)GlcNAc
# Summary of the method: as §1
# GalNAc6S(b1-4)GlcNAc = molecular target: GalNAc6S(b1-4)GlcNAc
# Summary of the method: as §1
# Glc(a1-4)Glc = molecular target: Glc(a1-4)Glc
# Summary of the method: as §1
# [5] = molecular target: Glc(a1-4)Glc(a1-4)Glc(a1-4)Glc
# Summary of the method: as §1
# Glc(a1-6)Glc(a1-6)Glc = molecular target: Glc(a1-6)Glc(a1-6)Glc
# Summary of the method: as §1
# [6] = molecular target: Glc(a1-6)Glc(a1-6)Glc(a1-6)Glc
# Summary of the method: as §1
# Glc(b1-4)Glc = molecular target: Glc(b1-4)Glc
# Summary of the method: as §1
# Glc(b1-6)Glc = molecular target: Glc(b1-6)Glc
# Summary of the method: as §1
# GlcA(b1-3)Gal = molecular target: GlcA(b1-3)Gal
# Summary of the method: as §1
# GlcA(b1-3)GlcNAc = molecular target: GlcA(b1-3)GlcNAc
# Summary of the method: as §1
# GlcA(b1-6)Gal = molecular target: GlcA(b1-6)Gal
# Summary of the method: as §1
# [7] = molecular target: GlcA3S(b1-3)Gal(b1-4)GlcNAc(b1-2)Man
# Summary of the method: as §1
# [8] = molecular target: GlcA3S(b1-3)Gal(b1-4)GlcNAc(b1-3)Gal(b1-4)Glc
# Summary of the method: as §1
# [9] = molecular target: GlcNAc(a1-3)Gal(b1-4)GlcNAc
# Summary of the method: as §1
# [10] = molecular target: GlcNAc(a1-4)Gal(b1-3)GlcNAc
# Summary of the method: as §1
# [11] = molecular target: GlcNAc(a1-4)Gal(b1-4)GalNAc
# Summary of the method: as §1
# [12] = molecular target: GlcNAc(a1-4)Gal(b1-4)GlcNAc
# Summary of the method: as §1
# [13] = molecular target: GlcNAc(a1-4)Gal(b1-4)GlcNAc(b1-3)Gal(b1-4)Glc
# Summary of the method: as §1
# [14] = molecular target: GlcNAc(a1-4)Gal(b1-4)GlcNAc(b1-3)Gal(b1-4)GlcNAc
# Summary of the method: as §1
# [15] = molecular target: GlcNAc(a1-4)Gal(b1-4)GlcNAc(b1-3)Gal(b1-4)GlcNAc(b1-3)Gal(b1-4)GlcNAc
# Summary of the method: as §1
# [16] = molecular target: GlcNAc(a1-4)Gal(b1-4)GlcNAc(b1-3)Gal(b1-4)[Fuc(a1-3)]GlcNAc(b1-3)Gal(b1-4)[Fuc(a1-3)]GlcNAc
# Summary of the method: as §1
# [17] = molecular target: GlcNAc(a1-6)Gal(b1-4)GlcNAc
# Summary of the method: as §1
# [18] = molecular target: GlcNAc(b1-2)Gal(b1-3)GalNAc
# Summary of the method: as §1
# [19] = molecular target: GlcNAc(b1-2)Man(a1-3)[GlcNAc(b1-2)Man(a1-6)]Man(b1-4)GlcNAc(b1-4)GlcNAc
# Summary of the method: as §1
# [20] = molecular target: GlcNAc(b1-2)Man(a1-3)[GlcNAc(b1-2)Man(a1-6)]Man(b1-4)GlcNAc(b1-4)[Fuc(a1-6)]GlcNAc
# Summary of the method: as §1
# [21] = molecular target: GlcNAc(b1-2)Man(a1-3)[GlcNAc(b1-4)][GlcNAc(b1-2)Man(a1-6)]Man(b1-4)GlcNAc(b1-4)GlcNAc
# Summary of the method: as §1
# [22] = molecular target: GlcNAc(b1-2)Man(a1-3)[GlcNAc(b1-4)][GlcNAc(b1-2)Man(a1-6)]Man(b1-4)GlcNAc(b1-4)[Fuc(a1-6)]GlcNAc
# Summary of the method: as §1
# [23] = molecular target: GlcNAc(b1-2)[GlcNAc(b1-4)]Man(a1-3)[GlcNAc(b1-2)Man(a1-6)]Man(b1-4)GlcNAc(b1-4)GlcNAc
# Summary of the method: as §1
# [24] = molecular target: GlcNAc(b1-2)[GlcNAc(b1-4)]Man(a1-3)[GlcNAc(b1-4)][GlcNAc(b1-2)Man(a1-6)]Man(b1-4)GlcNAc(b1-4)GlcNAc
# Summary of the method: as §1
# [25] = molecular target: GlcNAc(b1-2)[GlcNAc(b1-4)]Man(a1-3)[GlcNAc(b1-4)][GlcNAc(b1-2)[GlcNAc(b1-6)]Man(a1-6)]Man(b1-4)GlcNAc(b1-4)GlcNAc
# Summary of the method: as §1
# [26] = molecular target: GlcNAc(b1-2)[GlcNAc(b1-4)]Man(a1-3)[GlcNAc(b1-4)][GlcNAc(b1-2)[GlcNAc(b1-6)]Man(a1-6)]Man(b1-4)GlcNAc(b1-4)[Fuc(a1-6)]GlcNAc
# Summary of the method: as §1
# [27] = molecular target: GlcNAc(b1-2)[GlcNAc(b1-6)]Man(a1-6)[GlcNAc(b1-2)Man(a1-3)]Man(b1-4)GlcNAc(b1-4)GlcNAc
# Summary of the method: as §1
# [28] = molecular target: GlcNAc(b1-2)[GlcNAc(b1-6)]Man(a1-6)[GlcNAc(b1-2)Man(a1-3)]Man(b1-4)GlcNAc(b1-4)[Fuc(a1-6)]GlcNAc
# Summary of the method: as §1
# [29] = molecular target: GlcNAc(b1-2)[GlcNAc(b1-6)]Man(a1-6)[GlcNAc(b1-4)][GlcNAc(b1-2)Man(a1-3)]Man(b1-4)GlcNAc(b1-4)GlcNAc
# Summary of the method: as §1
# GlcNAc(b1-3)Fuc = molecular target: GlcNAc(b1-3)Fuc
# Summary of the method: as §1
# GlcNAc(b1-3)Gal = molecular target: GlcNAc(b1-3)Gal
# Summary of the method: as §1
# [30] = molecular target: GlcNAc(b1-3)Gal(b1-3)GalNAc
# Summary of the method: as §1
binder,measurement,setting,value
B1,glycan array binding signal (z-score),[1],-0.356
same,glycan array binding signal (z-score),[2],2
same,glycan array binding signal (z-score),[3],-0.059
same,glycan array binding signal (z-score),GalNAc(b1-4)GlcNAc6S,-0.57
same,glycan array binding signal (z-score),GalNAc(b1-6)GalNAc,-0.446
same,glycan array binding signal (z-score),GalNAc3S(b1-4)GlcNAc,-0.738
same,glycan array binding signal (z-score),GalNAc3S(b1-4)GlcNAc3S,2.33
same,glycan array binding signal (z-score),[4],-0.543
same,glycan array binding signal (z-score),GalNAc4S6S(b1-4)GlcNAc,2.08
same,glycan array binding signal (z-score),GalNAc6S(b1-4)GlcNAc,0.087
same,glycan array binding signal (z-score),Glc(a1-4)Glc,-0.583
same,glycan array binding signal (z-score),[5],-0.556
same,glycan array binding signal (z-score),Glc(a1-6)Glc(a1-6)Glc,-0.335
same,glycan array binding signal (z-score),[6],-0.252
same,glycan array binding signal (z-score),Glc(b1-4)Glc,-0.56
same,glycan array binding signal (z-score),Glc(b1-6)Glc,-0.526
same,glycan array binding signal (z-score),GlcA(b1-3)Gal,-0.631
same,glycan array binding signal (z-score),GlcA(b1-3)GlcNAc,-0.597
same,glycan array binding signal (z-score),GlcA(b1-6)Gal,-0.367
same,glycan array binding signal (z-score),[7],0.513
same,glycan array binding signal (z-score),[8],-0.195
same,glycan array binding signal (z-score),[9],-0.801
same,glycan array binding signal (z-score),[10],-0.602
same,glycan array binding signal (z-score),[11],-0.433
same,glycan array binding signal (z-score),[12],-0.722
same,glycan array binding signal (z-score),[13],-0.156
same,glycan array binding signal (z-score),[14],0.544
same,glycan array binding signal (z-score),[15],-0.388
same,glycan array binding signal (z-score),[16],0.097
same,glycan array binding signal (z-score),[17],-0.818
same,glycan array binding signal (z-score),[18],-0.927
same,glycan array binding signal (z-score),[19],0.052
same,glycan array binding signal (z-score),[20],-0.408
same,glycan array binding signal (z-score),[21],0
same,glycan array binding signal (z-score),[22],-0.5
same,glycan array binding signal (z-score),[23],-0.06
same,glycan array binding signal (z-score),[24],-0.458
same,glycan array binding signal (z-score),[25],-0.34
same,glycan array binding signal (z-score),[26],-0.356
same,glycan array binding signal (z-score),[27],0.028
same,glycan array binding signal (z-score),[28],0.023
same,glycan array binding signal (z-score),[29],-0.439
same,glycan array binding signal (z-score),GlcNAc(b1-3)Fuc,-0.673
same,glycan array binding signal (z-score),GlcNAc(b1-3)Gal,-0.618
same,glycan array binding signal (z-score),[30],0.058

# Fetched one by one from the list above:
binder,measurement,setting,value
B1,glycan array binding signal (z-score),[7],0.513
same,glycan array binding signal (z-score),[5],-0.556
same,glycan array binding signal (z-score),[4],-0.543
